Measurements taken from the supplement of paper PMC10849652.
This is one part of the list.

Sequences of proteins named here, by UniProt entry; tags and fusion partners are left off. A change or cut given only in a name is not applied to a line headed by its entry.
UniProt P61019: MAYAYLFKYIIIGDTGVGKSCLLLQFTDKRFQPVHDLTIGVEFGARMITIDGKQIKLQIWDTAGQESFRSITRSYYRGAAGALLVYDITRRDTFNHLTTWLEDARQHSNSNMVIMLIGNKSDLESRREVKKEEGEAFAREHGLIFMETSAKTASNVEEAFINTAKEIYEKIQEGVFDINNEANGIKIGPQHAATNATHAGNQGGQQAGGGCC
UniProt P62491: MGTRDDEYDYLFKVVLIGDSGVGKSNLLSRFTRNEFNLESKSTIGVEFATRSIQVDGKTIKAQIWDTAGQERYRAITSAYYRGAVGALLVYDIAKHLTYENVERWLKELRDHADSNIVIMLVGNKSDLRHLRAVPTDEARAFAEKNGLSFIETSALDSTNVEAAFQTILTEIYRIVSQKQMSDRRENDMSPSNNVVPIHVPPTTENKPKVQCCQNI
UniProt P20339: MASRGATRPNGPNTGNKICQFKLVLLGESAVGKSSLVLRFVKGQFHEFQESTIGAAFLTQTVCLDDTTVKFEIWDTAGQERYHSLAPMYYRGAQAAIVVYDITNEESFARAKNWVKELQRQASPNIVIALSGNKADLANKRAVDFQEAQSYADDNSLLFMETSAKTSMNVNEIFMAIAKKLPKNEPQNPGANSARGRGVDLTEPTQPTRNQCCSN
UniProt Q13905: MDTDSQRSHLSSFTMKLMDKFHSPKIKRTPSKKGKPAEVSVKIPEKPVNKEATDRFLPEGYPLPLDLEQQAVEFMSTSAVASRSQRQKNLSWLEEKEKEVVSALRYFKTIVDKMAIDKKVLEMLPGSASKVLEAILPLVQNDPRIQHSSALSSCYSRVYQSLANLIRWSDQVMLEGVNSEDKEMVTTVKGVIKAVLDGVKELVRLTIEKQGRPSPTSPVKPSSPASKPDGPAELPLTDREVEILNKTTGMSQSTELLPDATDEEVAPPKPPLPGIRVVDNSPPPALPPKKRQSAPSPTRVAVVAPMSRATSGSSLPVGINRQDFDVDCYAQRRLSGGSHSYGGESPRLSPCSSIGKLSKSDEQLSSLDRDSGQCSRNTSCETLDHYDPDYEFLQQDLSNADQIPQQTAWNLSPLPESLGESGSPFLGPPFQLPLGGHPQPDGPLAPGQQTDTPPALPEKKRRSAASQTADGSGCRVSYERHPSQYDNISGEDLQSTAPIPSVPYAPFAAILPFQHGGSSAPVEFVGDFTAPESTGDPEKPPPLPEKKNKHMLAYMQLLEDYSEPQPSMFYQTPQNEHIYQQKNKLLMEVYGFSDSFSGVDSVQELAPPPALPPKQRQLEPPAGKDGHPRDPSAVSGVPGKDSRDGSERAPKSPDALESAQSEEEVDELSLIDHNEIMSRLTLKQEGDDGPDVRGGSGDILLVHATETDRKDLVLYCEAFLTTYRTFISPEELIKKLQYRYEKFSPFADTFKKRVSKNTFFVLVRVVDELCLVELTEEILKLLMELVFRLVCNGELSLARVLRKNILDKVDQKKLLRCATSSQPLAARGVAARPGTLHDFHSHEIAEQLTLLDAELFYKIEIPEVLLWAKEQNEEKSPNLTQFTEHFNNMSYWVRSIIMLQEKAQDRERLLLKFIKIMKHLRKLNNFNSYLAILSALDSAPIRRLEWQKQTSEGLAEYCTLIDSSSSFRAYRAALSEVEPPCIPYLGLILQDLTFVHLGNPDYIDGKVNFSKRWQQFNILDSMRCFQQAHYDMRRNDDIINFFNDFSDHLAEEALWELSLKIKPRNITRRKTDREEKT
UniProt Q9Y4B4: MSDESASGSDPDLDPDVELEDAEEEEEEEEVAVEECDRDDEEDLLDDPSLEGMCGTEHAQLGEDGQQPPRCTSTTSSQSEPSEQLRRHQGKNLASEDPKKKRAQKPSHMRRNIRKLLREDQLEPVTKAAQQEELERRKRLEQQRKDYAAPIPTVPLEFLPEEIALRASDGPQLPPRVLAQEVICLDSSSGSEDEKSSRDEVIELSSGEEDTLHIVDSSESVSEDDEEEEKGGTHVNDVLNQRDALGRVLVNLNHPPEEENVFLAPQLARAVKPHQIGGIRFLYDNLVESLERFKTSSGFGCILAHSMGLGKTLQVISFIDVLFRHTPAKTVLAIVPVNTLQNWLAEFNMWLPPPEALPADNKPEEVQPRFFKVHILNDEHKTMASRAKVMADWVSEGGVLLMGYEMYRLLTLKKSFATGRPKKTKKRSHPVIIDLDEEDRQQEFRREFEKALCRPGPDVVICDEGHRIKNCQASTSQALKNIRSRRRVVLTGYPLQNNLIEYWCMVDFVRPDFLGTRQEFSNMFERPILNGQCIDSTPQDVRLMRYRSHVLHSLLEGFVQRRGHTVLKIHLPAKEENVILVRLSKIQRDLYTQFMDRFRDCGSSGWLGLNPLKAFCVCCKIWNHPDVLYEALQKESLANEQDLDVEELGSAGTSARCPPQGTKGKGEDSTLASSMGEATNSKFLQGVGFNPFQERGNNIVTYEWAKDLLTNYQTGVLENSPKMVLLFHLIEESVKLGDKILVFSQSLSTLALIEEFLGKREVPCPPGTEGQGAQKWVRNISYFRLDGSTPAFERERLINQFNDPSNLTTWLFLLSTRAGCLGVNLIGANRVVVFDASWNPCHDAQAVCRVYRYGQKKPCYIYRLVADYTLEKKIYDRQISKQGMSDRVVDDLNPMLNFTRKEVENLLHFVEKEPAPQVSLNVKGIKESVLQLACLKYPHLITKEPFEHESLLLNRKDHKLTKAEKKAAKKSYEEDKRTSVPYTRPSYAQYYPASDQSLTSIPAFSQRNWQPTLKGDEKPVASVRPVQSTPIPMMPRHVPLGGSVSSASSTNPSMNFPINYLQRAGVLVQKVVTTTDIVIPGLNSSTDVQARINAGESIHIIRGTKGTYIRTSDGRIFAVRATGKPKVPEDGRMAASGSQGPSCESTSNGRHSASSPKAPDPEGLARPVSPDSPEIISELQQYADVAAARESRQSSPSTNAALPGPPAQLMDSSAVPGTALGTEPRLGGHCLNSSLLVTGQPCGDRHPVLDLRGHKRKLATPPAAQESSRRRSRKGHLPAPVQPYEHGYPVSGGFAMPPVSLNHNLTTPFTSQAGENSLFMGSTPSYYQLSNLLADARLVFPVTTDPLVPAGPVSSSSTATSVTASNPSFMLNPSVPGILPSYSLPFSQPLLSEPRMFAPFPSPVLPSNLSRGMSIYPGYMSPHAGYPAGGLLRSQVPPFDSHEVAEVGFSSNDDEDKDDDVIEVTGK
UniProt O60518: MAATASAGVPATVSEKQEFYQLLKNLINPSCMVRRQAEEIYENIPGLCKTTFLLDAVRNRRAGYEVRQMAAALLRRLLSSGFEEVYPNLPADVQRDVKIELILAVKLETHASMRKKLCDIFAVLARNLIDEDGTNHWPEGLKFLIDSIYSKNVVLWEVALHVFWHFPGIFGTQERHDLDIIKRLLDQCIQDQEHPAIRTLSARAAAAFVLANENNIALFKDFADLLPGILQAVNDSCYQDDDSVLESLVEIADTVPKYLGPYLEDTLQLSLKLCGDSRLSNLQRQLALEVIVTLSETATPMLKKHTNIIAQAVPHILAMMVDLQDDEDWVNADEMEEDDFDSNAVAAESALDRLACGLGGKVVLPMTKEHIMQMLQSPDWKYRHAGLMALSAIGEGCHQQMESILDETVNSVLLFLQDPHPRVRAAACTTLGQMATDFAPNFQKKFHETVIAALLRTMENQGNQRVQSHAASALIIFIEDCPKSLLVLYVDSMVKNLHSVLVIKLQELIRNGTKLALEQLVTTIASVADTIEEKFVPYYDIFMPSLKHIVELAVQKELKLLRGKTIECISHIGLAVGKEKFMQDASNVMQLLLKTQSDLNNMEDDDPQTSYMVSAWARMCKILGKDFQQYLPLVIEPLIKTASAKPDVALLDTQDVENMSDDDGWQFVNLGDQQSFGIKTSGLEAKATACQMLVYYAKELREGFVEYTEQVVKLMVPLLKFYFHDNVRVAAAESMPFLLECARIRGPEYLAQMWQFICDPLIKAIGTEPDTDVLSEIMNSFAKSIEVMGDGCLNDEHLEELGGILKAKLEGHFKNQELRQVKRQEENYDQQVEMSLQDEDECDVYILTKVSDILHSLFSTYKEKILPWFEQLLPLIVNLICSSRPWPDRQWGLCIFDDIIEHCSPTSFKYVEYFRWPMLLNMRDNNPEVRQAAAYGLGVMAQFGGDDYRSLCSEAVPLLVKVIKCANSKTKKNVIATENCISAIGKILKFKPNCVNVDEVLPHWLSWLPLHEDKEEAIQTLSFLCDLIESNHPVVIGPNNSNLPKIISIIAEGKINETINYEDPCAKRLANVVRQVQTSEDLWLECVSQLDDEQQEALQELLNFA
UniProt O15315: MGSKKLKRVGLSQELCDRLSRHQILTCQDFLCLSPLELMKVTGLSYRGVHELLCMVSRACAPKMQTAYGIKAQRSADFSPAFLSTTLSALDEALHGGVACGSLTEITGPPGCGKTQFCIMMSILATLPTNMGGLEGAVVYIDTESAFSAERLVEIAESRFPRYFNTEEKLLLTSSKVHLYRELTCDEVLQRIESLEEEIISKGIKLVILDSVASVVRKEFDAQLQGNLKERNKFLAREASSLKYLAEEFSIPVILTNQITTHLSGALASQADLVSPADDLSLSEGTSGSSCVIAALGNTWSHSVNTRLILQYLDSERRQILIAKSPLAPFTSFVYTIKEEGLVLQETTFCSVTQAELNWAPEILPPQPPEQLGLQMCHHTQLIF
UniProt Q96C36: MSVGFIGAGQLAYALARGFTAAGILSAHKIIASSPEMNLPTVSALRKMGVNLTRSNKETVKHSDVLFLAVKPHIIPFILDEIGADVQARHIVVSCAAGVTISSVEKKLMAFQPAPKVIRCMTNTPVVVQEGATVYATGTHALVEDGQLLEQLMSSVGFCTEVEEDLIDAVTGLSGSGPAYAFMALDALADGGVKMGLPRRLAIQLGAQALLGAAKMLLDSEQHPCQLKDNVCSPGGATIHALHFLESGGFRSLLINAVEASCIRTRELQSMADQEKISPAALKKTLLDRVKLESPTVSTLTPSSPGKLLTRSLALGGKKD
UniProt Q9BTL3: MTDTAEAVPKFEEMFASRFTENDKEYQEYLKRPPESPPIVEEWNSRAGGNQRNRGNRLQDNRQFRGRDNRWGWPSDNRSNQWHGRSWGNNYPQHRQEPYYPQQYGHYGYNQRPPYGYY

Assays:
Experiment in all cases: log2 fold change, soluble protein after heating vs DMSO (PISA); higher = thermal stabilisation; K562 lysate, 10 uM; active = over 0.2 and 3.5 SD of the protein, either way, in both replicates (recomputed)
[1] = compound: C1=CC=C(C=C1)[C@H](COC2=CC3=C(C=C2)NC(=O)N3)NC(=O)C4=CC=CN(C4=O)CC5=CC(=C(C=C5)F)F
In short: (§1)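 Following dounce homogenisation of K562 pellets in PBS pH 7.4 with 1 mM MgCl2, crude extract at 1 mg/mL protein was incubated for 30 min with 10 μM compound. Aliquots were then heated for 3 min over 48°C-58°C and pooled, NP-40 was added to 0.5% at 4°C, and soluble protein was recovered as the supernatant at 21,000xg for 90 min. Channel-sum-equalised TMTpro 16plex LC-MS/MS quantified this protein. Each value, from duplicates, is a log-two fold change in thermal stability relative to solvent controls.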

[2] = compound: CC1=C(SC2=C1C(=N[C@H](C3=NN=C(N32)C)CC(=O)N)C4=CC=C(C=C4)Cl)C
In short: as §1

[3] = compound: CC1=C2C(=CC=C1)N=C(N(C2=O)C3=CC=CC=C3C)CN4C=NC5=C(N=CN=C54)N
In short: as §1

[4] = compound: Cc1sc2c(c1C)C(c1ccc(Cl)cc1)=N[C@@H](CC(=O)OC(C)(C)C)c1nnc(C)n1-2
In short: as §1

[5] = compound: c1ccc([C@@H]2C[C@H]2NC2CCNCC2)cc1
In short: as §1

Measured: log2 fold change

RAB2A (UniProt P61019)
inactive: [1] -0.046 | [2] 0.013 | [3] 0.003 | [4] 0.023 | [5] 0.016

RAB11A (UniProt P62491)
inactive: [1] -0.003 | [2] -0.067 | [3] -0.006 | [4] -0.001 | [5] 0.119

RAB5A (UniProt P20339)
inactive: [1] -0.061 | [2] 0.017 | [3] 0.033 | [4] 0.017 | [5] 0.004

RAPGEF1 isoform 3 (UniProt Q13905)
inactive: [1] 0.024 | [2] 0.074 | [3] 0.07 | [4] -0.119 | [5] -0.01

RAD54L2 (UniProt Q9Y4B4)
inactive: [1] 0.139 | [2] 0.144 | [3] 0.029 | [4] -0.131 | [5] 0.147

RANBP6 (UniProt O60518)
inactive: [1] 0.013 | [2] -0.047 | [3] 0.046 | [4] 0.074 | [5] 0.005

RAD51B (UniProt O15315)
inactive: [1] 0.072 | [2] -0.042 | [3] 0 | [4] 0.158 | [5] -0.116

PYCR2 (UniProt Q96C36)
inactive: [1] 0.007 | [2] 0.036 | [3] 0.013 | [4] 0.004 | [5] -0.054

RAMAC (UniProt Q9BTL3)
inactive: [1] 0.081 | [2] -0.025 | [3] -0.011 | [4] -0.029 | [5] 0.033
